For at least one entry, the source does not settle the construct or the ends of the probe.

Data on ten sequences can be found in publication PMC9810662.

The series relates to SREBP-bHLH (Ganoderma lingzhi). Put plainly: EMSA. To be noted: Lightshift Chemiluminescent EMSA Kit (Thermo 20148) per manufacturer; 0.6 ug SREBP-bHLH; 200x unlabelled competitor; pH and temperature not stated; recombinant protein; protein details: His-tag (pTriEx4); label: 3' biotin. On the technique in general: A gel shift assay detects complexes by their altered migration in electrophoresis.

Turning to “ACGAGGTGTGAGCGAGGAGTGGGGAACTGC (double strand) [g4309pro]”, the binding result is “binds”.

As for “AGGGACACATGAGAAGGAGACGATTGAGACGGGAA (double strand) [g4280pro]”, the binding result was “binds”.

With “AGTGATAGGAGGAGGAGAGACTGGGGGACGGGGGTGCGAA (double strand) [g3847pro]”, the binding result was “binds”.

In the case of “ATCCGCGAGAGCAGAGAGGGCGGAGGACGGGGTGGTG (double strand) [g805pro]”, the binding result was “binds”.

As for “CACATCCCGCCCTCCTCTTCGTCCACGCCAGC (double strand) [g1941pro]”, the binding result is given as “binds”.

In the case of “CTGGCAATCTTCTGGCATCTCTGATTCTGA (double strand) [g6347pro]”, the binding result is listed as “binds”.

On to “GCTTGCTATTTTCGCCCTCTTCACCATCGACTT (double strand) [g5041pro]”, for which the binding result is on record as “binds”.

Turning to “TCTCCGCTTCTCTTCTTCCTCTGAACCTT (double strand) [g4989pro]”, the binding result is “binds”.

As to “TGGGGCAGCCTGGACAGCGAAAAGCATGGATGGGA (double strand) [g3941pro]”, the binding result is reported as “binds”.

Consider “TTCACCCCGTTCGCCCCGTTCGCCCCGTTCGCCCCATTCACCCCGTTC (double strand) [g1208pro]”, for which the binding result is on record as “binds”.
